# Part of at least one peptide drawing is inferred or uncertain, most often the ends. Ends that are not written are not given here.
# Experiments:
# mouse brain synaptosomes = test: release of tritiated GABA from mouse brain synaptosomes; type: cell-based; details: mouse brain synaptosomes preloaded with 3H-GABA, FIG. 2
# Excerpt: (§1) The mechanism of action of all synthetic peptides was verified by three independent essays: "in vivo" challenge by injection of albino mice (strain CD1) with different amounts of synthetic peptides; liberation of radioactive (tritiated) gamma-amino-butyric acid from mouse brain synaptosomes; and confirmation of the results with electrophysiological experiments, through voltage-clamp technique, in chick embryo dorsal root ganglion cells maintained in "in vitro" culture.
# In the experiments involving release of neurotransmitters, mouse brain synaptosomes were preloaded with radioactive gamma-amino-butyric acid (2, 3, 3H-GABA) and were placed in Millipore filters ([…]) in perfusion chambers, each one containing 0.2 to 0.3 mg. of synaptosomal protein. The fractions from the perfusate (0.5 ml. each) were collected by means of a peristaltic pump at one minute intervals. After 6 minutes, a solution containing synthetic polypeptides was added to the experimental chambers and the radioactivity release was counted in an apparatus for measuring radioisotopes. […] The liberation of GABA per minute is expressed as a percentage of the total radioactivity present in the synaptosomes at the beginning of the experiment.
# potassium channel = test: voltage-clamp study of potassium channel blockade in dorsal root ganglion cells; type: cell-based; details: 40 micromolar, chick embryo dorsal root ganglion cells
# Excerpt: as §1
sequence,measurement,setting,value
"TIINVKCTS [NTX 1-9, Threonine-Isoleucine-Isoleucine-Asparagine-Valine-Lysine-Cysteine-Threonine-Serine]",effect on GABA (neurotransmitter) release,mouse brain synaptosomes,increases neurotransmitter release
same,decrease in the potassium currents,potassium channel,at least 30%

# Source: patent publication US4929718A, “Synthetic noxiustoxin related peptides” (Universidad Nacional Autonoma De Mexico, priority 1987, dated 1990)
